Results are given in words; binding and its absence hold for the method and conditions named.
Target: T1, biotinylated PAR1 peptide (biotin-31…58-FITC) (human)
T1 sequence (peptide, biotin on the N-terminus; FITC on the C-terminus): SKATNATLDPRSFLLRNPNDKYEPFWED
Experiment: SPR; ProteOn XPR36; biotinylated PAR1 peptide immobilised on an NLC chip via NeutrAvidin-biotin (2600 RU); KLK4 variants flowed over in PBST at 30 µL/min for 818 s, dissociation 30 min (166 min for KLK4 S207A,L185D); 25 °C; empty channel subtracted; 1:1 Langmuir kinetic model; both purified

Sequences of proteins named here, by UniProt entry; tags and fusion partners are left off. Residues count along the entry.
UniProt Q9Y5K2, residues 31-254: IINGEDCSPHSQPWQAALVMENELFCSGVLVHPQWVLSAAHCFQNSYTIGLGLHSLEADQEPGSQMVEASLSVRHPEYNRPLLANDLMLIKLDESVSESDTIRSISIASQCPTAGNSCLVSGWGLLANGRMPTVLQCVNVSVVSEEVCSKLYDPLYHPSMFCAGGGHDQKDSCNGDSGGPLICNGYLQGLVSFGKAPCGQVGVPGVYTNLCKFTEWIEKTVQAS

binding: no binding (tested: 100 nM)
Substance: KLK4WT (wild-type tissue kallikrein-4, activated) (from UniProt Q9Y5K2 31-254) (enzyme)
